Experimental data from the supplement of paper PMC12067093, “Discovery and optimisation of a covalent ligand for TRIM25 and its application to targeted protein ubiquitination” (Chemical Science, 2025).
This is one part of the list.

Protein sequences, listed by entry. Tags and fused reporters are not part of them. Lines headed by an entry give the natural chain unless they say otherwise; changes in a name come on top.
UniProt Q5VT06: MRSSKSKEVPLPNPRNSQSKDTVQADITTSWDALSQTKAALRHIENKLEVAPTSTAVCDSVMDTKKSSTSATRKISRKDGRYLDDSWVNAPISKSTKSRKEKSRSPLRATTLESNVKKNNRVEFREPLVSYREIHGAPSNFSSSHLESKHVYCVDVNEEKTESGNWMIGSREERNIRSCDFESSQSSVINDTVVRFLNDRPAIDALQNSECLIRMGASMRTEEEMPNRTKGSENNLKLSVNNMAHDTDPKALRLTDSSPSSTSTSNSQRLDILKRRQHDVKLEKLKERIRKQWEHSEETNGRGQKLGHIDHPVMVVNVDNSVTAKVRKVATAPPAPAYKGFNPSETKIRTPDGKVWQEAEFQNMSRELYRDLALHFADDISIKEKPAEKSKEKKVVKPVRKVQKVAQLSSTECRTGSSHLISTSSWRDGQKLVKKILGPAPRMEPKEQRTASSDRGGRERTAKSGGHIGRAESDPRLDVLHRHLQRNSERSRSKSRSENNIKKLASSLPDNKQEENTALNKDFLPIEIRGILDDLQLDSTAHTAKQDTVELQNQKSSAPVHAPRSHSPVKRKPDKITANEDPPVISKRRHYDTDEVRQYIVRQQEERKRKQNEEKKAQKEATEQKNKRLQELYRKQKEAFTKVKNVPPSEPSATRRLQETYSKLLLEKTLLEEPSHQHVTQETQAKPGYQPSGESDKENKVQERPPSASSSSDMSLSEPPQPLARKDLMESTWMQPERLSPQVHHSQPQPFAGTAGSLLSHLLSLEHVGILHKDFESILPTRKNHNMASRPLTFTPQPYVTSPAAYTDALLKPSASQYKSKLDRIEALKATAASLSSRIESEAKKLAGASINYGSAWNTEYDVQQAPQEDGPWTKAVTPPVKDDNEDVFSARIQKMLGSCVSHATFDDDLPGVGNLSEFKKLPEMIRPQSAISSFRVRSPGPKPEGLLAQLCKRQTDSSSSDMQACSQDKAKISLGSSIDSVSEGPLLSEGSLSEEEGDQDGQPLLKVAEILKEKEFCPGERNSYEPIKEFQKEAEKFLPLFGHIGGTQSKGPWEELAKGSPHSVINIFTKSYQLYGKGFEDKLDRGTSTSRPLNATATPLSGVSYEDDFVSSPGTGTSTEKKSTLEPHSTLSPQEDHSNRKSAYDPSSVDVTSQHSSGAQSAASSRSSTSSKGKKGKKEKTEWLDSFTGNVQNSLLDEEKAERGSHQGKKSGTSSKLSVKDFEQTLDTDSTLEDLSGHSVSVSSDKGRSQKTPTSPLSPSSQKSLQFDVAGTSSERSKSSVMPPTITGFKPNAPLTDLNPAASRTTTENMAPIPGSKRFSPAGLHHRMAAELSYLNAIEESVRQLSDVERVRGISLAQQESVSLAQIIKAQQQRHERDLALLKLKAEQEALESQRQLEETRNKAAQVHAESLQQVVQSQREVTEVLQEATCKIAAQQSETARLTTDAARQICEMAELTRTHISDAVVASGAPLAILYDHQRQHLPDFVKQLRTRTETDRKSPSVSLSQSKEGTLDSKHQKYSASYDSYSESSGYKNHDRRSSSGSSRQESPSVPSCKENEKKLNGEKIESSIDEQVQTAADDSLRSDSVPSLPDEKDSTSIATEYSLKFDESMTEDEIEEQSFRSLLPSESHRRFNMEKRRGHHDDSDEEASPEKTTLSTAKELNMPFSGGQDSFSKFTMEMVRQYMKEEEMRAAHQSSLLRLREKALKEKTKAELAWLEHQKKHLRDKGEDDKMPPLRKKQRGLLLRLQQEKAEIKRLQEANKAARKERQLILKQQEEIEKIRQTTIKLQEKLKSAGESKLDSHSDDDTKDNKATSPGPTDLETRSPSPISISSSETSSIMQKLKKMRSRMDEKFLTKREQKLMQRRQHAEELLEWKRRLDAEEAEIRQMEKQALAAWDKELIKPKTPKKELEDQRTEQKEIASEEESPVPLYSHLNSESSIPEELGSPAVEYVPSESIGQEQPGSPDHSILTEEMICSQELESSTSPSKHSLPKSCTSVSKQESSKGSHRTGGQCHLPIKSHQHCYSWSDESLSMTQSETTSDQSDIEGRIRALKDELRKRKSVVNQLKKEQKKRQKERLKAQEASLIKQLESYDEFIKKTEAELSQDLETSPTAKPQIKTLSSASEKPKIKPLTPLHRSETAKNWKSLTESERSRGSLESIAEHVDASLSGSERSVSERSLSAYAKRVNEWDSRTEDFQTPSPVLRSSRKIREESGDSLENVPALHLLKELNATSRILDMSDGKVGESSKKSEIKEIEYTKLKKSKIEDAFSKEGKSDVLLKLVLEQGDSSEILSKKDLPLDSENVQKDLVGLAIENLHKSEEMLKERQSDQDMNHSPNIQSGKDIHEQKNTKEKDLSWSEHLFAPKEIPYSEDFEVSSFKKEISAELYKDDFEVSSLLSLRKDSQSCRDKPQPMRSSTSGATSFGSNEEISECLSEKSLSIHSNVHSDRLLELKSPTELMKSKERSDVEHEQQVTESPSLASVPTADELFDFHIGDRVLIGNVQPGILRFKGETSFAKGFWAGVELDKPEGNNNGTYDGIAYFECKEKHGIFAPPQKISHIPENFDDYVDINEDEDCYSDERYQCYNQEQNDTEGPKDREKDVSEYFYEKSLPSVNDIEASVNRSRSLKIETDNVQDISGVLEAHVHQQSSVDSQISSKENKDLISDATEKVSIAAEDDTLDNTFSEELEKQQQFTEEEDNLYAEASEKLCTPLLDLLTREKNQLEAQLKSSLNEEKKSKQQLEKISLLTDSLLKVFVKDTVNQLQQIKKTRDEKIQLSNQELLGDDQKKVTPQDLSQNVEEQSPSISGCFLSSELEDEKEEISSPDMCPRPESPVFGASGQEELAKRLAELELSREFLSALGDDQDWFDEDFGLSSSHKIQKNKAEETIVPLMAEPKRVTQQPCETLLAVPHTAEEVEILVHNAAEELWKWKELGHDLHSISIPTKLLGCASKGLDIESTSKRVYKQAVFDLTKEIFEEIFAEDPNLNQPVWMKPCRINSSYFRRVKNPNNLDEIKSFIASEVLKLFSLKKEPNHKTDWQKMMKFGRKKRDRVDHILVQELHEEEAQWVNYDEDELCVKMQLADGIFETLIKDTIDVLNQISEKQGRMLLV
UniProt Q9BV73: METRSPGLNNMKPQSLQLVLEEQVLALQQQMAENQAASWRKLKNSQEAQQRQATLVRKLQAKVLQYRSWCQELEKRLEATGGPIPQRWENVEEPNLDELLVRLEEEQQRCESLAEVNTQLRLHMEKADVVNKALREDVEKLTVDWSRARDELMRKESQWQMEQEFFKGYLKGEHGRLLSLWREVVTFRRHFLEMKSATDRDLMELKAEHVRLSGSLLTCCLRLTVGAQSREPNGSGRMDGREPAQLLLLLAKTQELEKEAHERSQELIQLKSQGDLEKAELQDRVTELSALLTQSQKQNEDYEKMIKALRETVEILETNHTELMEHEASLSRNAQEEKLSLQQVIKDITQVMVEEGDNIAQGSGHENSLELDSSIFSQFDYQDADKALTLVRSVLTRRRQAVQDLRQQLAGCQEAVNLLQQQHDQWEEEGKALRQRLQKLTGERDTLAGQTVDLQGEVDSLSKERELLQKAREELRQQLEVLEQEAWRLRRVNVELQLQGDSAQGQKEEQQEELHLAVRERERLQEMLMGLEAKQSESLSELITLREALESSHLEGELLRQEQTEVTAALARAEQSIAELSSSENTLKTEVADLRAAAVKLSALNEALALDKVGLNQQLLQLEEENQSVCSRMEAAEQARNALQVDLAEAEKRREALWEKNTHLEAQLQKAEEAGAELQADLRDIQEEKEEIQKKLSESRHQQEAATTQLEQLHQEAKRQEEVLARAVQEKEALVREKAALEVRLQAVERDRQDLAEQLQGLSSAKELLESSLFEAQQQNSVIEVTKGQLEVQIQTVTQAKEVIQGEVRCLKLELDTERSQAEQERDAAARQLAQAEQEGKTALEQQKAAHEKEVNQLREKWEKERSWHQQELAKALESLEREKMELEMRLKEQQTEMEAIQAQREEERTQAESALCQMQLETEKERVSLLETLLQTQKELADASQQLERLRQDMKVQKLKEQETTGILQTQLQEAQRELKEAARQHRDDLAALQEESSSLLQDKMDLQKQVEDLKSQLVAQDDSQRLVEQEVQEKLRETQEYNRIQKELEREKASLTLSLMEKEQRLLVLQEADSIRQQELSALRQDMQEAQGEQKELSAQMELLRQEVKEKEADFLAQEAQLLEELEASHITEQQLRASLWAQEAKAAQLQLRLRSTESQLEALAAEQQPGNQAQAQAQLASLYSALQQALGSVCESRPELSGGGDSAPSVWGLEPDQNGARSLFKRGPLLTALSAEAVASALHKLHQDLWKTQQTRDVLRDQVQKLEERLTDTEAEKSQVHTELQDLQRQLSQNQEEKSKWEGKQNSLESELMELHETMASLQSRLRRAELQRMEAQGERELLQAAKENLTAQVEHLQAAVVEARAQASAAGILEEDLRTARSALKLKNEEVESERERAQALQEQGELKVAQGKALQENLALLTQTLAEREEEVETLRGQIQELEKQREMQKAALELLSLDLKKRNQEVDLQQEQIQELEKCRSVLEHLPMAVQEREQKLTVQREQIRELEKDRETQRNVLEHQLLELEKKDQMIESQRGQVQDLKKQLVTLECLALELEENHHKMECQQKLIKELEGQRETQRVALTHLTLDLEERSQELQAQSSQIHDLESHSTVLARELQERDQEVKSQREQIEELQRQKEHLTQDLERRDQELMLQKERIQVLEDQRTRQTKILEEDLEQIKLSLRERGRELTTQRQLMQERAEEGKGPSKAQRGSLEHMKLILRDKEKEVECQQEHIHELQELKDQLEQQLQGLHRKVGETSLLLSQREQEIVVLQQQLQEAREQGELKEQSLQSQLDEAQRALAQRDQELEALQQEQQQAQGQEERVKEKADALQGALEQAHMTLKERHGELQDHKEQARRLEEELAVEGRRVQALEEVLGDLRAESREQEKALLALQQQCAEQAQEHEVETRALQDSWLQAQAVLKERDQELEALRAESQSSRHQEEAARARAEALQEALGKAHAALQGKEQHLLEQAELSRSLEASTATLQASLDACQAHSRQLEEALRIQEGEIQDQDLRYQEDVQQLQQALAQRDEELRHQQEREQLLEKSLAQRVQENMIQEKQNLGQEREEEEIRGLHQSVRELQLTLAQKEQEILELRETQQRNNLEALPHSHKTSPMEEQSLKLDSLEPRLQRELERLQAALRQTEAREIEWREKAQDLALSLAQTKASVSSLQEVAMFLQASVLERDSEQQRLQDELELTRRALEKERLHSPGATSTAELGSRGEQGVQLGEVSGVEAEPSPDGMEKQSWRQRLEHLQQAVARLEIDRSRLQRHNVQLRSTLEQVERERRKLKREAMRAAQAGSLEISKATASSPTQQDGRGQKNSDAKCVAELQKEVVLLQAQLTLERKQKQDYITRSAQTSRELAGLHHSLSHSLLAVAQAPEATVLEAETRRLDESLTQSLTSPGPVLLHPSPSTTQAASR
UniProt P25942, whole entry, looked up: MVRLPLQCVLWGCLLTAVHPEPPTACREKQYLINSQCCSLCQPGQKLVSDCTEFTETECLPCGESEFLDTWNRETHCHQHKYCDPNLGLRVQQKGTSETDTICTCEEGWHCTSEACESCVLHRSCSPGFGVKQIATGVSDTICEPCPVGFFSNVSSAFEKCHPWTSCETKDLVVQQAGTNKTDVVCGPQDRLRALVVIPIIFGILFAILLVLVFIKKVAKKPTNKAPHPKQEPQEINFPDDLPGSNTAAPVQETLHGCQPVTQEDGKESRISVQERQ
UniProt Q99832: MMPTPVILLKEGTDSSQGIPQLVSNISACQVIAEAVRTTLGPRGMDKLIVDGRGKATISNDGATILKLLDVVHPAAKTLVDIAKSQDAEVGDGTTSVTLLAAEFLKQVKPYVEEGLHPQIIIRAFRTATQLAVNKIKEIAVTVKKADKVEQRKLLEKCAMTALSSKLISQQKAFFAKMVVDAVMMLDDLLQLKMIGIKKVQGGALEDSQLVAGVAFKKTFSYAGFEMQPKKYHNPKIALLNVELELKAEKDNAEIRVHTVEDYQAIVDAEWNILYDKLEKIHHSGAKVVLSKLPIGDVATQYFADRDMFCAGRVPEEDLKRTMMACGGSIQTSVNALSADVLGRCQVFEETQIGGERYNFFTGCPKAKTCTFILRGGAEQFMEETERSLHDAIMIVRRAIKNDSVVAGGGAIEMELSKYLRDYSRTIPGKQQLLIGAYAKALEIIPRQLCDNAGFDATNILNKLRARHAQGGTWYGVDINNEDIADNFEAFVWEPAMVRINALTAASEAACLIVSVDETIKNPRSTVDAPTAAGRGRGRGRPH

These targets were tested with CC1Cc2ccccc2N1C(=O)C1CCCN(C1)C(=O)CCl (mixture of isomers) [TRIM25 ligand 11 (diastereomer mixture)] (assay: probe-labelled cysteine peptide fold change vs DMSO (competition) (log2 fold change); higher = less target engagement (more negative = stronger competition)). Conditions: 50 µM; THP-1; incubation time: 4 h.
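Note: competitive chemoproteomic profiling in live THP-1 cells with an iodoacetamide desthiobiotin (IA-DTB) probe, comparing probe-labelled peptide intensities in compound-treated cells against DMSO-treated controls.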

Going from “CEP192_Q8TEP8_882_TCSIDNK (UniProt Q8TEP8)” to “CENPF_P49454_1291_YISGPHELSTSQNDNAHLQCSLQTTMNK (UniProt P49454)”, the “probe-labelled cysteine peptide fold change” value falls from -0.213 to -0.249.

Compared with “CD44_P16070_53_TEAADLCK (UniProt P16070)”, “CDC27_P30260_126_SHDDIVTEFGDSACFTLSLLGHVYCK (UniProt P30260)” is lower in “probe-labelled cysteine peptide fold change” value: 0.153 for the first, -0.0367 for the second.

First: CEP170_Q5SW79_30_EMIFVGRDDCELMLQSR (UniProt Q5SW79)
Second: CDKN2AIP_Q9NXV6_503_SSQESIVCELR (UniProt Q9NXV6)
The “probe-labelled cysteine peptide fold change” value of the first is lower: -0.132 for the first, 0.18 for the second.

Going from “CEP120_Q8N960_762_AKEDCIHQVELER (UniProt Q8N960)” to “CDAN1_Q8IWY9_400_LLCFSPALQGR (UniProt Q8IWY9)”, the “probe-labelled cysteine peptide fold change” value rises from 0.116 to 0.285.

Compared with “CEP128_Q6ZU80_839_EIDAACK (UniProt Q6ZU80)”, “CD97_P48960_256_DTVCEDMTFSTWTPPPGVHSQTLSR (UniProt P48960)” is lower in “probe-labelled cysteine peptide fold change” value: 0.0453 for the first, -0.0929 for the second.

Compared with “CENPV_Q7Z7K6_240_SNPGGFGIAPHCLDEGTVR (UniProt Q7Z7K6)”, “CEP350_Q5VT06_1557_QESPSVPSCK (UniProt Q5VT06)” is higher in “probe-labelled cysteine peptide fold change” value: -0.194 for the first, -0.158 for the second.

Going from “CEP350_Q5VT06_1432_EVTEVLQEATCK (UniProt Q5VT06)” to “CEP192_Q8TEP8_2335_CSPISGLLESHGIQK (UniProt Q8TEP8)”, the “probe-labelled cysteine peptide fold change” value rises from -0.0971 to 0.0182.

Compared with “CEP250_Q9BV73_1740_EVECQQEHIHELQELK (UniProt Q9BV73)”, “CD40_P25942_111_GTSETDTICTCEEGWHCTSEACESCVLHR (UniProt P25942)” is higher in “probe-labelled cysteine peptide fold change” value: -0.154 for the first, 0.305 for the second.

Going from “CD40_P25942_116+119_GTSETDTICTCEEGWHCTSEACESCVLHR (UniProt P25942)” to “CEP350_Q5VT06_211_FLNDRPAIDALQNSECLIR (UniProt Q5VT06)”, the “probe-labelled cysteine peptide fold change” value falls from 0.0635 to -0.243.

Going from “CCT5_P48643_253_IAILTCPFEPPKPK (UniProt P48643)” to “CEP250_Q9BV73_630_VGLNQQLLQLEEENQSVCSR (UniProt Q9BV73)”, the “probe-labelled cysteine peptide fold change” value falls from 0.0472 to -0.047.

Going from “CENPF_P49454_752_CYQDLHAEYESLR (UniProt P49454)” to “CCT4_P50991_252_IGLIQFCLSAPK (UniProt P50991)”, the “probe-labelled cysteine peptide fold change” value falls from 0.0586 to -0.124.

First: CCT7_Q99832_29_EGTDSSQGIPQLVSNISACQVIAEAVR (UniProt Q99832)
Second: CDCA2_Q69YH5_315_SPATPACR (UniProt Q69YH5)
The “probe-labelled cysteine peptide fold change” value of the first is higher: -0.0225 for the first, -0.199 for the second.

Compared with “CEP152_O94986_1019_ETELQTCLDQSR (UniProt O94986)”, “CEP85_Q6P2H3_527_VTELESLLEETQAICR (UniProt Q6P2H3)” is lower in “probe-labelled cysteine peptide fold change” value: 0.148 for the first, 0.122 for the second.

First: CENPF_P49454_621_TLFSCWK (UniProt P49454)
Second: CELF1_Q92879_150_GCAFVTFTTR (UniProt Q92879)
The “probe-labelled cysteine peptide fold change” value of the first is lower: 0.119 for the first, 0.134 for the second.

Going from “CEP350_Q5VT06_3083_VDHILVQELHEEEAQWVNYDEDELCVK (UniProt Q5VT06)” to “CDK5RAP2_Q96SN8_434_SKGDCTIR (UniProt Q96SN8)”, the “probe-labelled cysteine peptide fold change” value rises from -0.0239 to 0.121.

Compared with “CCT7_Q99832_310_LPIGDVATQYFADRDMFCAGR (UniProt Q99832)”, “CEP68_Q76N32_465_RPTCTESR (UniProt Q76N32)” is higher in “probe-labelled cysteine peptide fold change” value: -0.14 for the first, -0.0237 for the second.

Compared with “CDK5RAP3_Q96JB5_68_INAAIQDMPESEEIAQLLSGSYIHYFHCLR (UniProt Q96JB5)”, “CCT8_P50990_347_LTPPVLEEMGHCDSVYLSEVGDTQVVVFKHEKEDGAISTIVLR (UniProt P50990)” is lower in “probe-labelled cysteine peptide fold change” value: 0.169 for the first, -0.451 for the second.

First: CDC45_O75419_267_NEDEENTLSVDCTR (UniProt O75419)
Second: CDK5RAP2_Q96SN8_1811_VSLPEDGQCPLHCEQIGEMK (UniProt Q96SN8)
The “probe-labelled cysteine peptide fold change” value of the first is lower: 0.0608 for the first, 0.0961 for the second.

First: CEPT1_Q9Y6K0_11+30_CGDSHPESPVGFGHMSTTGCVLNK (UniProt Q9Y6K0)
Second: CELF2_O95319_201_AMHQSQTMEGCSSPIVVK (UniProt O95319)
The “probe-labelled cysteine peptide fold change” value of the first is lower: -0.555 for the first, -0.396 for the second.
